Test results reported in US11931463B2, “All-in-one fixed-dose combination for treating Helicobacter pylori infection” (RedHill Biopharma Ltd., priority 2013, dated 2024).
Like-named read-outs stand apart in the source and are kept apart here. For at least one compound, name, drawing or mass did not settle the structure.

How the values were obtained:
[1] = long term conditions
[2] = Assay and related substances under accelerated conditions 40° C./75% RH; type: physicochemical
[3] = Omeprazole two-stage dissolution (acid stage 0.1N HCl, buffer stage phosphate pH 6.8), baskets; type: physicochemical

COc1ccc2[nH]c([S+]([O-])Cc3ncc(C)c(OC)c3C)nc2c1 (stereo not drawn) [Omeprazole]
5-Methoxy-1H-benzimidazole-2-thiol ([1]; 3 months): 0.1%
Omeprazole related compound F&G ([1]; 3 months): No peak
Total impurities ([1]; 3 months): 0.1%
5-Methoxy-1H-benzimidazole-2-thiol ([1]; 6 months): 0.1%
Omeprazole related compound F&G ([1]; 6 months): No peak
Total impurities ([1]; 6 months): 0.3%
5-Methoxy-1H-benzimidazole-2-thiol ([1]; Time: 0): 0.1%
Omeprazole related compound F&G ([1]; Time: 0): No peak
Total impurities ([1]; Time: 0): 0.5%
Related Substances, Total ([2]; T = 0): 0.24 % area
Related Substances, Total ([2]; T = 1 month, 40° C./75% RH): 2.46 % area
released in in vitro dissolution assay ([3]; 20 minutes following the acid stage): 90%
released in in vitro dissolution assay ([3]; 30 minutes following the acid stage): 90%
released in in vitro dissolution assay ([3]; 45 minutes following the acid stage): 86%
average released in acid stage ([3]; acid stage (pH1)): 0%
